# Measured values: patent US11152578B2, “Sulfonium salts of DNTT and related compounds as soluble photocleavable precursors for organic semiconductors for use in organic field-effect transistors” (Clap Co., Ltd., priority 2017, dated 2021)
# Test: Electrical measurement of bottom-gate top-contact organic field-effect transistor with semiconducting material deriving from the precursor compound
# Conditions: OFET
# Method: A heavily doped n-type silicon wafers with a thermally-grown silicon dioxide layer (200 nm) were cleaned with isopropanol and treated with a solution of octadecyl trichlorosilane in toluene. The solution of the compound 1Aa in chloroform was spin coated at 3000 rpm for 30 sec and annealed at 90° C. for 30 seconds. A 50 nm-thick of Au layer for source and drain electrodes was deposited through a shadow mask to give top contact OFET devices. The substrate was exposed to deep ultraviolet (UV) light (energy density of 2 J/cm^2) and annealed at 90° C. The channel width (W) was 1000 μm and channel length (L) was 62 μm. A sample without light exposure was also prepared and evaluated as a comparison.
# All electrical measurements were performed in ambient air in the dark using a 4200-SCS Keithley parameter analyzer.
# In FIG. 1 the drain-source current IDS in relation to the gate-source voltage VGS (transfer curve) for field effect transistor comprising a semiconducting material deriving from compound 1Aa at a drain-source voltage VDS of −80V is shown.
# The charge-carrier mobility (μ) was extracted in the saturation regime from the slope of (IDS)^1/2 versus VGS using the equation μ=2 L/(W*Ci)*(dIDS½/dVGS)^2, wherein L is the channel length, W is the channel width, Ci is the capacitance per unit area of the dielectric layer, IDS is the drain-source current, and VGS is the gate-source voltage.
# The threshold voltage (Vth) was extracted from the intersection of the linear extrapolation of the IDS^1/2 versus VGS plot with the VGS axis.
# [1] = UV exposure 0 mJ/cm^2 (without light exposure)
compound,measurement,setting,value
CCC(C)(C)c1ccc(-[s+]2c3cc4ccccc4cc3c3sc4cc5ccccc5cc4c32)cc1.F[B-](F)(F)F (stereo not drawn) [Compound 1Aa],I on/off,[1],Not detected
same,Vth [V] (threshold voltage),[1],Not detected
same,μ [cm^2/Vs] (charge-carrier mobility),[1],Not detected
same,I on/off,"UV exposure 2000 mJ/cm^2, annealed at 90° C.",1.0E+04
same,Vth [V] (threshold voltage),"UV exposure 2000 mJ/cm^2, annealed at 90° C., VDS −80V",−38.2 V
same,μ [cm^2/Vs] (charge-carrier mobility),"UV exposure 2000 mJ/cm^2, annealed at 90° C., saturation regime",0.003 cm^2/Vs
